A short description of the data set: Chiral GC of commercially available butadiene monoepoxide. The data set is classed as physicochemical.

Consider `C=CC1CO1` (centres unmarked) [BME, 1,3-butadiene monoepoxide], for which the “R-enantiomer content of commercial product” value is given as 24%. Under “+/−2%”, the “S-enantiomer content of commercial product” value came to 76%.

(Values after US7169591B1, “Preparation of enantio-specific epoxides” (priority 1999, dated 2007).)
